Measurements taken from the supplement of paper PMC8728848.
The list shows a part of the results.

Tests used:
Experiment in all cases: glycan array binding signal (z-score within array); higher = stronger binding
Conditions in all cases: glycan notation: IUPAC condensed, linker removed
[1] = target: GlcNAc(b1-2)Gal(b1-3)GalNAc
How it was run: (§1)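 Arrays were curated from the Consortium for Functional Glycomics database, 3228 in total, and kept only where the protein sequence was available. Binding is expressed as a within-array Z-score. This score was averaged across arrays of the same protein sequence at different concentrations or buffers and across linkers, and negative values can be read as non-binding.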

[2] = target: GlcNAc(b1-2)Man(a1-3)[GlcNAc(b1-2)Man(a1-6)]Man(b1-4)GlcNAc(b1-4)GlcNAc
How it was run: as §1

[3] = target: GlcNAc(b1-2)Man(a1-3)[GlcNAc(b1-2)Man(a1-6)]Man(b1-4)GlcNAc(b1-4)[Fuc(a1-6)]GlcNAc
How it was run: as §1

[4] = target: GlcNAc(b1-2)Man(a1-3)[GlcNAc(b1-4)][GlcNAc(b1-2)Man(a1-6)]Man(b1-4)GlcNAc(b1-4)GlcNAc
How it was run: as §1

[5] = target: GlcNAc(b1-2)Man(a1-3)[GlcNAc(b1-4)][GlcNAc(b1-2)Man(a1-6)]Man(b1-4)GlcNAc(b1-4)[Fuc(a1-6)]GlcNAc
How it was run: as §1

[6] = target: GlcNAc(b1-2)[GlcNAc(b1-4)]Man(a1-3)[GlcNAc(b1-2)Man(a1-6)]Man(b1-4)GlcNAc(b1-4)GlcNAc
How it was run: as §1

[7] = target: GlcNAc(b1-2)[GlcNAc(b1-4)]Man(a1-3)[GlcNAc(b1-4)][GlcNAc(b1-2)Man(a1-6)]Man(b1-4)GlcNAc(b1-4)GlcNAc
How it was run: as §1

[8] = target: GlcNAc(b1-2)[GlcNAc(b1-4)]Man(a1-3)[GlcNAc(b1-4)][GlcNAc(b1-2)[GlcNAc(b1-6)]Man(a1-6)]Man(b1-4)GlcNAc(b1-4)GlcNAc
How it was run: as §1

[9] = target: GlcNAc(b1-2)[GlcNAc(b1-4)]Man(a1-3)[GlcNAc(b1-4)][GlcNAc(b1-2)[GlcNAc(b1-6)]Man(a1-6)]Man(b1-4)GlcNAc(b1-4)[Fuc(a1-6)]GlcNAc
How it was run: as §1

[10] = target: GlcNAc(b1-2)[GlcNAc(b1-6)]Man(a1-6)[GlcNAc(b1-2)Man(a1-3)]Man(b1-4)GlcNAc(b1-4)GlcNAc
How it was run: as §1

[11] = target: GlcNAc(b1-2)[GlcNAc(b1-6)]Man(a1-6)[GlcNAc(b1-2)Man(a1-3)]Man(b1-4)GlcNAc(b1-4)[Fuc(a1-6)]GlcNAc
How it was run: as §1

[12] = target: GlcNAc(b1-2)[GlcNAc(b1-6)]Man(a1-6)[GlcNAc(b1-4)][GlcNAc(b1-2)Man(a1-3)]Man(b1-4)GlcNAc(b1-4)GlcNAc
How it was run: as §1

[13] = target: GlcNAc(b1-3)Fuc
How it was run: as §1

[14] = target: GlcNAc(b1-3)Gal
How it was run: as §1

[15] = target: GlcNAc(b1-3)Gal(b1-3)GalNAc
How it was run: as §1

[16] = target: GlcNAc(b1-3)Gal(b1-4)Glc
How it was run: as §1

[17] = target: GlcNAc(b1-3)Gal(b1-4)GlcNAc
How it was run: as §1

[18] = target: GlcNAc(b1-3)Gal(b1-4)GlcNAc(b1-2)Man(a1-3)[GlcNAc(b1-3)Gal(b1-4)GlcNAc(b1-2)Man(a1-6)]Man(b1-4)GlcNAc(b1-4)GlcNAc
How it was run: as §1

[19] = target: GlcNAc(b1-3)Gal(b1-4)GlcNAc(b1-2)Man(a1-3)[GlcNAc(b1-3)Gal(b1-4)GlcNAc(b1-2)Man(a1-6)]Man(b1-4)GlcNAc(b1-4)[Fuc(a1-6)]GlcNAc
How it was run: as §1

[20] = target: GlcNAc(b1-3)Gal(b1-4)GlcNAc(b1-2)[GlcNAc(b1-3)Gal(b1-4)GlcNAc(b1-6)]Man(a1-6)[GlcNAc(b1-3)Gal(b1-4)GlcNAc(b1-2)Man(a1-3)]Man(b1-4)GlcNAc(b1-4)GlcNAc
How it was run: as §1

[21] = target: GlcNAc(b1-3)Gal(b1-4)GlcNAc(b1-3)Gal(b1-4)GlcNAc
How it was run: as §1

[22] = target: GlcNAc(b1-3)Gal(b1-4)GlcNAc(b1-3)Gal(b1-4)GlcNAc(b1-2)Man(a1-3)[GlcNAc(b1-3)Gal(b1-4)GlcNAc(b1-3)Gal(b1-4)GlcNAc(b1-2)Man(a1-6)]Man(b1-4)GlcNAc(b1-4)GlcNAc
How it was run: as §1

[23] = target: GlcNAc(b1-3)Gal(b1-4)GlcNAc(b1-3)Gal(b1-4)GlcNAc(b1-2)Man(a1-3)[GlcNAc(b1-3)Gal(b1-4)GlcNAc(b1-3)Gal(b1-4)GlcNAc(b1-2)Man(a1-6)]Man(b1-4)GlcNAc(b1-4)[Fuc(a1-6)]GlcNAc
How it was run: as §1

[24] = target: GlcNAc(b1-3)Gal(b1-4)GlcNAc(b1-3)Gal(b1-4)GlcNAc(b1-2)[GlcNAc(b1-3)Gal(b1-4)GlcNAc(b1-3)Gal(b1-4)GlcNAc(b1-6)]Man(a1-6)[GlcNAc(b1-3)Gal(b1-4)GlcNAc(b1-3)Gal(b1-4)GlcNAc(b1-2)Man(a1-3)]Man(b1-4)GlcNAc(b1-4)[Fuc(a1-6)]GlcNAc
How it was run: as §1

[25] = target: GlcNAc(b1-3)Gal(b1-4)GlcNAc(b1-3)Gal(b1-4)GlcNAc(b1-3)Gal(b1-4)GlcNAc(b1-2)Man(a1-3)[GlcNAc(b1-3)Gal(b1-4)GlcNAc(b1-3)Gal(b1-4)GlcNAc(b1-3)Gal(b1-4)GlcNAc(b1-2)Man(a1-6)]Man(b1-4)GlcNAc(b1-4)GlcNAc
How it was run: as §1

[26] = target: GlcNAc(b1-3)Gal(b1-4)GlcNAc(b1-3)Gal(b1-4)GlcNAc(b1-3)Gal(b1-4)GlcNAc(b1-2)Man(a1-3)[GlcNAc(b1-3)Gal(b1-4)GlcNAc(b1-3)Gal(b1-4)GlcNAc(b1-3)Gal(b1-4)GlcNAc(b1-2)Man(a1-6)]Man(b1-4)GlcNAc(b1-4)[Fuc(a1-6)]GlcNAc
How it was run: as §1

[27] = target: GlcNAc(b1-3)Gal(b1-4)GlcNAc(b1-3)Gal(b1-4)GlcNAc(b1-3)Gal(b1-4)GlcNAc(b1-2)[GlcNAc(b1-3)Gal(b1-4)GlcNAc(b1-3)Gal(b1-4)GlcNAc(b1-3)Gal(b1-4)GlcNAc(b1-6)]Man(a1-6)[GlcNAc(b1-3)Gal(b1-4)GlcNAc(b1-3)Gal(b1-4)GlcNAc(b1-3)Gal(b1-4)GlcNAc(b1-2)Man(a1-3)]Man(b1-4)GlcNAc(b1-4)[Fuc(a1-6)]GlcNAc
How it was run: as §1

[28] = target: GlcNAc(b1-3)Gal(b1-4)GlcNAc(b1-3)Gal(b1-4)GlcNAc(b1-3)Gal(b1-4)GlcNAc(b1-3)Gal(b1-4)GlcNAc(b1-2)Man(a1-3)[GlcNAc(b1-3)Gal(b1-4)GlcNAc(b1-3)Gal(b1-4)GlcNAc(b1-3)Gal(b1-4)GlcNAc(b1-3)Gal(b1-4)GlcNAc(b1-2)Man(a1-6)]Man(b1-4)GlcNAc(b1-4)GlcNAc
How it was run: as §1

[29] = target: GlcNAc(b1-3)Gal(b1-4)GlcNAc(b1-3)Gal(b1-4)GlcNAc(b1-3)Gal(b1-4)GlcNAc(b1-3)Gal(b1-4)GlcNAc(b1-2)Man(a1-3)[GlcNAc(b1-3)Gal(b1-4)GlcNAc(b1-3)Gal(b1-4)GlcNAc(b1-3)Gal(b1-4)GlcNAc(b1-3)Gal(b1-4)GlcNAc(b1-2)Man(a1-6)]Man(b1-4)GlcNAc(b1-4)[Fuc(a1-6)]GlcNAc
How it was run: as §1

[30] = target: GlcNAc(b1-3)Gal(b1-4)GlcNAc(b1-3)Gal(b1-4)GlcNAc(b1-3)Gal(b1-4)GlcNAc(b1-3)Gal(b1-4)GlcNAc(b1-2)[GlcNAc(b1-3)Gal(b1-4)GlcNAc(b1-3)Gal(b1-4)GlcNAc(b1-3)Gal(b1-4)GlcNAc(b1-3)Gal(b1-4)GlcNAc(b1-6)]Man(a1-6)[GlcNAc(b1-3)Gal(b1-4)GlcNAc(b1-3)Gal(b1-4)GlcNAc(b1-3)Gal(b1-4)GlcNAc(b1-3)Gal(b1-4)GlcNAc(b1-2)Man(a1-3)]Man(b1-4)GlcNAc(b1-4)[Fuc(a1-6)]GlcNAc
How it was run: as §1

[31] = target: GlcNAc(b1-3)Gal(b1-4)GlcNAc(b1-3)Gal(b1-4)GlcNAc(b1-3)GalNAc
How it was run: as §1

[32] = target: GlcNAc(b1-3)Gal(b1-4)GlcNAc(b1-3)GalNAc
How it was run: as §1

[33] = target: GlcNAc(b1-3)Gal(b1-4)GlcNAc(b1-3)[GlcNAc(b1-3)Gal(b1-4)GlcNAc(b1-3)]GalNAc
How it was run: as §1

[34] = target: GlcNAc(b1-3)Gal(b1-4)GlcNAc(b1-6)[Gal(b1-3)]GalNAc
How it was run: as §1

[35] = target: GlcNAc(b1-3)Gal(b1-4)GlcNAc(b1-6)[GlcNAc(b1-3)Gal(b1-3)]GalNAc
How it was run: as §1

[36] = target: GlcNAc(b1-3)Gal(b1-4)GlcNAc(b1-6)[GlcNAc(b1-3)]Gal(b1-4)GlcNAc
How it was run: as §1

[37] = target: GlcNAc(b1-3)GalNAc
How it was run: as §1

B1: TAL6-4LysM (Trichoderma atroviride) (protein)
chain: AADSIPSISPTGIITPTPTQSGMVSNCNKFYDVHSNDGCSAIASSQHVDLSSLYKWNPAIKTDCSGLQASVYVCIGILTTSMSTTSKLPTTTSKPSTTSKPPTGITTPTPTQSGMVKNCNKFYDVHSGDGCSAIASSQKVNLSSFYLWNPAVKTDCSGLQASVFVCIGTLTTSMSTTTSKLPTTTSKPSTTSKPPTGIITPTPTQNGMVKNCNKFYDVHSGDGCSAIASSQKVNLSSFYLWNPAVKTDCSGLQASVFVCVGTATTTTAAGITTPTPTQSGMVSGCNKFYDVHAGDGCSAIASSQKIALSSLYKWNPAVKTDCSGLQASVYICIGVGNAAAARVTGALEQKLISEEDLNSAVDHHHHHH
Question: Which results are given for B1?
Answer: glycan array binding signal (z-score) [1]: 0.737; glycan array binding signal (z-score) [2]: 2.79; glycan array binding signal (z-score) [3]: 0.725; glycan array binding signal (z-score) [4]: 0.425; glycan array binding signal (z-score) [5]: -0.146; glycan array binding signal (z-score) [6]: 0.841; glycan array binding signal (z-score) [7]: -0.902; glycan array binding signal (z-score) [8]: -1.07; glycan array binding signal (z-score) [9]: -0.55; glycan array binding signal (z-score) [10]: 0.371; glycan array binding signal (z-score) [11]: -1.51; glycan array binding signal (z-score) [12]: -0.448; glycan array binding signal (z-score) [13]: 0.388; glycan array binding signal (z-score) [14]: -0.061; glycan array binding signal (z-score) [15]: 0.173; glycan array binding signal (z-score) [16]: -1.08; glycan array binding signal (z-score) [17]: -0.603; glycan array binding signal (z-score) [18]: -0.267; glycan array binding signal (z-score) [19]: -0.051; glycan array binding signal (z-score) [20]: 0.403; glycan array binding signal (z-score) [21]: -0.524; glycan array binding signal (z-score) [22]: 0.029; glycan array binding signal (z-score) [23]: -0.718; glycan array binding signal (z-score) [24]: -0.523; glycan array binding signal (z-score) [25]: 0.115; glycan array binding signal (z-score) [26]: -0.156; glycan array binding signal (z-score) [27]: -0.597; glycan array binding signal (z-score) [28]: 1.45; glycan array binding signal (z-score) [29]: -0.015; glycan array binding signal (z-score) [30]: -0.451; glycan array binding signal (z-score) [31]: 0.581; glycan array binding signal (z-score) [32]: -0.866; glycan array binding signal (z-score) [33]: -0.152; glycan array binding signal (z-score) [34]: 0.586; glycan array binding signal (z-score) [35]: -0.887; glycan array binding signal (z-score) [36]: -0.091; glycan array binding signal (z-score) [37]: -0.74
